The chains are these.
B1: MBDDE: MBD domain of MBD3 connected to the acidic tail; residues 263–291 (protein)
chain: MERKRWECPALPQGWEREEVPRRSGLSAGHRDVFYYSPSGKKFRSKPQLARYLGGSMDLSTFDFRTGKMLMSDKACAEDDDEEDEEEEEEEPDPDPEMEHV
modifications: left off: His6, N-terminal, cleaved
B2: MBD3: full-length human MBD3; residue 1–291 (protein)
chain: MERKRWECPALPQGWEREEVPRRSGLSAGHRDVFYYSPSGKKFRSKPQLARYLGGSMDLSTFDFRTGKMLMSKMNKSRQRVRYDSSNQVKGKPDLNTALPVRQTASIFKQPVTKITNHPSNKVKSDPQKAVDQPRQLFWEKKLSGLNAFDIAEELVKTMDLPKGLQGVGPGCTDETLLSAIASALHTSTMPITGQLSAAVEKNPGVWLNTTQPLCKAFMVTDEDIRKQEELVQQVRKRLEEALMADMLAHVEELARDGEAPLDKACAEDDDEEDEEEEEEEPDPDPEMEHV
B3: MBD domain: MBD domain of MBD3; residues 1–72 (protein)
chain: MERKRWECPALPQGWEREEVPRRSGLSAGHRDVFYYSPSGKKFRSKPQLARYLGGSMDLSTFDFRTGKMLMS
modifications: left off: His6, N-terminal, cleaved

The data set is described as follows: Gel filtration (SEC) oligomeric state of MBD3 proteins. Particulars: gel filtration against protein standards. A general note: Size exclusion chromatography separates by hydrodynamic size, large species first.
For the molecule B1, the oligomeric state entry is given as “dimeric form”.

With B2, the oligomeric state entry was “appeared to form a dimer in gel filtration”.

As to B3, the oligomeric state result is recorded as “monomer”.
